Percent effect of library compounds

Measurements from “University of Dundee, Small-Polar-MMV Screening Library” (2021), ChEMBL document CHEMBL3988442.

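Phenotypic screen: M. tuberculosis growth, glucose 7H9 medium, 3 days; the read-out is not stated. Compounds at 500 µM. The record gives no direction; compounds that gave an IC50 in retests scored well above the rest, so higher reads as more growth inhibition. About 18,000 compounds were tested under these conditions; 7.9% (about 1,400) showed 50% or more at least once.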

The filed quantity is “Percent Effect” (%). The record does not define 0% and 100%; most values in the screen are far below 50% and negative numbers occur (in some assays of this library far below -100). This is an unselected part of the compounds tested.

Compound	Percent Effect
CC(c1ccccn1)N(C)CC(=O)NCC(F)(F)F (stereo unspecified)	10.5
CN(C)C1(CNC(=O)c2ccncc2)CCCC1	23.15
O=C(CSCc1ccncc1)NCc1c[nH]nn1	7.189
CCN1C(=O)C[C@H](CO)[C@H]1c1cccnc1	-2.413
Cc1ccnc(CC2CCCCN2)c1 (stereo unspecified)	8.616
CC1COCCN1C(=O)NCc1nnc2ccccn12 (stereo unspecified)	-0.355
CC(C)(N)CN1CCCN(c2ccc(F)cc2)CC1	72.65
CC(C)(C)CC(=O)NCCS(=O)(=O)N1CCSCC1	5.053
CNS(=O)(=O)c1cc(C(=O)Nc2cc(C)ns2)c(C)o1	4.185
CCC(=O)N1CCCN(C(=O)C(N)C(C)(C)C)CC1 (stereo unspecified)	-10.76
COCCn1cncc1CNC(=O)CN1CCCC1	6.227
CN(C)C1CCCN(C(=O)c2ccc(Br)cn2)C1 (stereo unspecified)	8.746
CN1CCN(C)C2(CCN(C(=O)C(C)(C)O)CC2)C1	12.34
COC(=O)CNc1cc(Cl)ccc1C(=O)N1CCCC1	15.56
NS(=O)(=O)c1ccc2c(c1)N(Cc1ccon1)CC2	-2.872
COc1ccc(Cl)cc1NC(=O)CN(C)CC(N)=O	15.88
CN1CCN(C(=O)c2cnsn2)c2ccccc21	50.46
Cc1ccsc1CN(C)C(=O)Cn1cccnc1=O	18.5
Cc1cccc2[nH]c(C(C)O)nc12 (stereo unspecified)	26.01
O=C(N[C@H]1C[C@@H]2OCC[C@H]12)c1ccc2[nH]nnc2c1	4.223
NCc1ccc2c(N)noc2c1	19.11
Cc1nc(CN(CCO)Cc2nccn2C)cs1	10.3
CNC(=O)CCS(=O)(=O)Cc1nc(C(C)C)no1	9.179
OCC1CCCN1c1ncnc2ccc(F)cc12 (stereo unspecified)	-2.222
CN(Cc1nnc[nH]1)C(=O)Cc1cccc(Br)c1	8.312
CCc1ncc(C2NCCc3[nH]cnc32)cn1 (stereo unspecified)	9.033
O=S1(=O)CCCC1CNCc1cccc2cccnc12 (stereo unspecified)	18.37
COc1cccc(-c2ccc(CNS(N)(=O)=O)cc2)c1	26.66
NCc1ccc2sccc2c1	29.12
COc1ccccc1-c1cc(CO)[nH]n1	32.84
N#Cc1ccc(C(=O)NCCCc2csc(N)n2)cn1	19.17
CC(O)CCN(C)c1nccnc1C#N (stereo unspecified)	-0.03189
O=C(C1CCCN(C2CCNCC2)C1)N1CCOCC1 (stereo unspecified)	13.99
CCC(=O)c1cc(N)on1	1.342
CN(C(=O)c1ccc(Cl)c(F)c1)C1(C(N)=O)CCCC1	19.87
CN1CCCN(C(=O)COc2ccccc2Br)CC1	15.67
Cc1cc(C)c(C(=O)NCC(O)C2CCCC2)c(=O)[nH]1 (stereo unspecified)	-19.63
CCCNC(=O)c1ccc(CN2CCCC2)cc1	18.74
CC(=O)NCCNc1nc2c(s1)c(C)nn2C	-1.522
N[C@H]1CN(S(=O)(=O)N2CCOCC2)C[C@@H]1C1CC1	11.25
CCCn1ccnc1CNC(=O)c1cn(CCN)nn1	9.33
Cc1cc(NC(=O)CN2CCNC(=O)C2)ccc1Br	47.09
COC(=O)N1CC(NC(=O)c2cc(C(C)=O)c[nH]2)C1	12.72
CCC(CC)NC(=O)CN1CCCC(C)(CO)C1 (stereo unspecified)	8.664
Nc1nnc(SCc2cn3ccccc3n2)s1	-0.8762
Cc1nnc(NC(=O)CCNC(=O)C(C)C)s1	-0.1096
CC(=O)CN1CCCc2ccccc2C1	38.11
CC(C)c1ccccc1OCC(O)CN(C)CCO (stereo unspecified)	79.84
CN(C(=O)NC1CCCCC1)C1CC[S+]([O-])CC1 (stereo unspecified)	5.09
CC(C)N(Cc1ccc(CO)o1)CC1CCC(=O)N1 (stereo unspecified)	4.558
O=C(NCC(=O)N1CCCC1)c1csc2ccccc12	97.52
CCC(NC(=O)c1ccc(O)cc1F)[C@H]1C[C@H](O)C1 (stereo partly specified)	11.23
CCC(N)(CC)CNS(=O)(=O)N(C)C1CCCCC1	30.33
CCOC(=O)CN(C)c1c(C)c(C)nc2ncnn12	0.8264
CC(C)NC(=O)CSc1nc(C=Cc2cccs2)n[nH]1	85.58
COCc1cc(=O)[nH]c(C2(N)CCCC2)n1	10.23
CC(C)CC(NCCS(C)(=O)=O)c1ccccn1 (stereo unspecified)	6.211
CN(C)c1ccc(C(=O)N2CCC(O)CC2)cc1	12.18
COCCN(CC(=O)NC(N)=O)Cc1ccccc1	8.301
CC[C@H](C)[C@@H](CO)NC(=O)CCc1ccncc1	10.14

The first 8 entries again:

{"compound": "CC(c1ccccn1)N(C)CC(=O)NCC(F)(F)F", "stereo": "stereo unspecified", "Percent Effect": 10.5}
{"compound": "CN(C)C1(CNC(=O)c2ccncc2)CCCC1", "Percent Effect": 23.15}
{"compound": "O=C(CSCc1ccncc1)NCc1c[nH]nn1", "Percent Effect": 7.189}
{"compound": "CCN1C(=O)C[C@H](CO)[C@H]1c1cccnc1", "Percent Effect": -2.413}
{"compound": "Cc1ccnc(CC2CCCCN2)c1", "stereo": "stereo unspecified", "Percent Effect": 8.616}
{"compound": "CC1COCCN1C(=O)NCc1nnc2ccccn12", "stereo": "stereo unspecified", "Percent Effect": -0.355}
{"compound": "CC(C)(N)CN1CCCN(c2ccc(F)cc2)CC1", "Percent Effect": 72.65}
{"compound": "CC(C)(C)CC(=O)NCCS(=O)(=O)N1CCSCC1", "Percent Effect": 5.053}